{
  "source": "patent US8633177B2",
  "about": "“Nitroxyl (HNO) releasing compounds and uses thereof in treating diseases” (The United States of America, as represented by the …, priority 2010, dated 2014)",
  "system": "metmyoglobin (metMb)",
  "experiment": "Reductive nitrosylation of metmyoglobin (HNO trapping)",
  "set-up": "species or system horse",
  "details": "for yield of MbNO from metMb: 100 μM compound, 50 μM metMb, PBS pH 7.4, 37° C., out of a possible 50 μM; for yield of MbNO from metMb / effect of GSH on reductive nitrosylation of metMb: deaerated; for effect of GSH on reductive nitrosylation of metMb: 250 μM GSH",
  "data": [
    {"smiles": "CC(=O)Oc1ccccc1C(=O)OCON=[N+]([O-])NC(C)C", "note": "[IPA/NO-aspirin, O^2-(Acetylsalicyloyloxymethyl)-1-(N-isopropylamino)-diazen-1-ium-1,2-diolate]", "values": [
      {"measurement": "reaction with metMb", "setting": "2% guinea pig serum, physiological conditions", "result": "underwent reductive nitrosylation"}
    ]},
    {"smiles": "CC(=O)OCO/N=[N+](\\[O-])NC(C)C", "note": "[Compound 2, O^2-(acetoxymethyl)1-(isopropylamino)diazen-1-ium-1,2-diolate]", "values": [
      {"measurement": "yield of MbNO from metMb", "result": "~47", "unit": "µM"},
      {"measurement": "effect of GSH on reductive nitrosylation of metMb", "result": "GSH inhibited reductive nitrosylation"}
    ]},
    {"smiles": "CC(C)N[N+]([O-])=N[O-].[Na+]", "note": "[Compound 1, sodium 1-(N-isopropylamino)diazen-1-ium-1,2-diolate, reference compound]", "values": [
      {"measurement": "yield of MbNO from metMb", "result": "approximately 25 μM"},
      {"measurement": "effect of GSH on reductive nitrosylation of metMb", "result": "GSH enhanced the formation of MbNO"}
    ]}
  ]
}
